From patent US20140294819A1 (NVIP, published 2014) come the findings set out here.

To fix the notation:
B1: chimeric mouse-canine RA2, HCB isotype (antibody)
heavy: QVQLKQSGPGLVPPSQSLSITCTVSGFSLTNYGVHWVRQSPGKGLEWLGVIWSGGTTDYNAAFISRLSISKDNSKSQVFFKMNSLQADDTAIYYCARGPRKFYYYGMDYWGQGTSVTVSSASTTAPSVFPLAPSCGSTSGSTVALACLVSGYFPEPVTVSWNSGSLTSGVHTFPSVLQSSGLYSLSSMVTVPSSRWPSETFTCNVAHPASKTKVDKPVPKRENGRVPRPPDCPKCPAPEMLGGPSVFIFPPKPKDTLLIARTPEVTCVVVDLDPEDPEVQISWFVDGKQMQTAKTQPREEQFNGTYRVVSVLPIGHQDWLKGKQFTCKVNNKALPSPIERTISKARGQAHQPSVYVLPPSREELSKNTVSLTCLIKDFFPPDIDVEWQSNGQQEPESKYRTTPPQLDEDGSYFLYSKLSVDKSRWQRGDTFICAVMHEALHNHYTQESLSHSPGK
light: DVLMTQTPLSLPVSLGDQASISCRSSQSIVHSNGNTYLEWYLQKPGQSPKLLIYKVSNRFSGVPDRFSGSGSGTDFTLKISRVEAGDLGVYYCFQGLHVPLTFGAGTRLELKRNDAQPAVYLFQPSPDQLHTGSASVVCLLNSFYPKDINVKWKVDGVIQDTGIQESVTEQDKDSTYSLSSTLTMSSTEYLSHELYSCEITHKSLPSTLIKSFQRSECQRVD
notes: also called chiRA2-B; chimeric RA2
B2: chimeric mouse-canine RF2, HCB isotype (antibody)
heavy: QVQLKQSGPGLVPPSQSLSITCTISGFSLTSYGVHWVRQSPGWGLEWLGVIWSGGSIDYNAAFISRLSISKDNSKSQVFIKMNSLQADDTAIYYCARGPRKFYYFGMDYWGQGTSVTVSSASTTAPSVFPLAPSCGSTSGSTVALACLVSGYFPEPVTVSWNSGSLTSGVHTFPSVLQSSGLYSLSSMVTVPSSRWPSETFTCNVAHPASKTKVDKPVPKRENGRVPRPPDCPKCPAPEMLGGPSVFIFPPKPKDTLLIARTPEVTCVVVDLDPEDPEVQISWFVDGKQMQTAKTQPREEQFNGTYRVVSVLPIGHQDWLKGKQFTCKVNNKALPSPIERTISKARGQAHQPSVYVLPPSREELSKNTVSLTCLIKDFFPPDIDVEWQSNGQQEPESKYRTTPPQLDEDGSYFLYSKLSVDKSRWQRGDTFICAVMHEALHNHYTQESLSHSPGK
light: DVVMTQTPLSLPVSLGDQASISCRSSQNIVHSNGNTYVEWYLQKPGQSPKLLIYKVSNRFSGVPDRFSGSGSGTDFTLKISRVEAEDLGVYYCFQGSHVPLTFGAGTKLELKRNDAQPAVYLFQPSPDQLHTGSASVVCLLNSFYPKDINVKWKVDGVIQDTGIQESVTEQDKDSTYSLSSTLTMSSTEYLSHELYSCEITHKSLPSTLIKSFQRSECQRVD
notes: also called chiRF2-B; chimeric RF2
B3: caninised RA2, HCB isotype (antibody)
heavy: EVQLVQSGGGLVKPTESLTISCVVSGFSLTNYGVHWVRQSPGKGLEWLGVIWSGGTTDYNAAFISRLSISKDNSKSTVFLRMNSLRADDTAIYYCARGPRKFYYYGMDYWGQGTSVTVSSASTTAPSVFPLAPSCGSTSGSTVALACLVSGYFPEPVTVSWNSGSLTSGVHTFPSVLQSSGLYSLSSMVTVPSSRWPSETFTCNVAHPASKTKVDKPVPKRENGRVPRPPDCPKCPAPEMLGGPSVFIFPPKPKDTLLIARTPEVTCVVVDLDPEDPEVQISWFVDGKQMQTAKTQPREEQFNGTYRVVSVLPIGHQDWLKGKQFTCKVNNKALPSPIERTISKARGQAHQPSVYVLPPSREELSKNTVSLTCLIKDFFPPDIDVEWQSNGQQEPESKYRTTPPQLDEDGSYFLYSKLSVDKSRWQRGDTFICAVMHEALHNHYTQESLSHSPGK
light: DIVMTQTPLSLSVSQEEEASISCRSSQSIVHSNGNTYLEWYLQKPGQSPKLLIYKVSNRFSGVPDRFSGSGSGTDFTLKISRVEAGDAGVYYCFQGLHVPLTFGAGTKLELKRNDAQPAVYLFQPSPDQLHTGSASVVCLLNSFYPKDINVKWKVDGVIQDTGIQESVTEQDKDSTYSLSSTLTMSSTEYLSHELYSCEITHKSLPSTLIKSFQRSECQRVD
notes: also called caRA2-B
B4: caninised RA2, HCC isotype (antibody)
heavy: EVQLVQSGGGLVKPTESLTISCVVSGFSLTNYGVHWVRQSPGKGLEWLGVIWSGGTTDYNAAFISRLSISKDNSKSTVFLRMNSLRADDTAIYYCARGPRKFYYYGMDYWGQGTSVTVSSASTTAPSVFPLAPSCGSQSGSTVALACLVSGYIPEPVTVSWNSVSLTSGVHTFPSVLQSSGLYSLSSMVTVPSSRWPSETFTCNVAHPATNTKVDKPVAKECECKCNCNNCPCPGCGLLGGPSVFIFPPKPKDILVTARTPTVTCVVVDLDPENPEVQISWFVDSKQVQTANTQPREEQSNGTYRVVSVLPIGHQDWLSGKQFKCKVNNKALPSPIEEIISKTPGQAHQPNVYVLPPSRDEMSKNTVTLTCLVKDFFPPEIDVEWQSNGQQEPESKYRMTPPQLDEDGSYFLYSKLSVDKSRWQRGDTFICAVMHEALHNHYTQISLSHSPGK
light: DIVMTQTPLSLSVSQEEEASISCRSSQSIVHSNGNTYLEWYLQKPGQSPKLLIYKVSNRFSGVPDRFSGSGSGTDFTLKISRVEAGDAGVYYCFQGLHVPLTFGAGTKLELKRNDAQPAVYLFQPSPDQLHTGSASVVCLLNSFYPKDINVKWKVDGVIQDTGIQESVTEQDKDSTYSLSSTLTMSSTEYLSHELYSCEITHKSLPSTLIKSFQRSECQRVD
notes: See note of m19; also called caRA2-C
B5: caninised RF2, HCB isotype (antibody)
heavy: EVQLVQSGGGLVKPTESLTISCVISGFSLTSYGVHWVRQSPGKGLEWLGVIWSGGSIDYNAAFISRLSISKDNSKSTVFIRMNSLRADDTAIYYCARGPRKFYYFGMDYWGQGTSVTVSSASTTAPSVFPLAPSCGSTSGSTVALACLVSGYFPEPVTVSWNSGSLTSGVHTFPSVLQSSGLYSLSSMVTVPSSRWPSETFTCNVAHPASKTKVDKPVPKRENGRVPRPPDCPKCPAPEMLGGPSVFIFPPKPKDTLLIARTPEVTCVVVDLDPEDPEVQISWFVDGKQMQTAKTQPREEQFNGTYRVVSVLPIGHQDWLKGKQFTCKVNNKALPSPIERTISKARGQAHQPSVYVLPPSREELSKNTVSLTCLIKDFFPPDIDVEWQSNGQQEPESKYRTTPPQLDEDGSYFLYSKLSVDKSRWQRGDTFICAVMHEALHNHYTQESLSHSPGK
light: DIVMTQTPLSLSVSQEEEASISCRSSQNIVHSNGNTYVEWYLQKPGQSPKLLIYKVSNRFSGVPDRFSGSGSGTDFTLKISRVEAEDAGVYYCFQGSHVPLTFGAGTKLELKRNDAQPAVYLFQPSPDQLHTGSASVVCLLNSFYPKDINVKWKVDGVIQDTGIQESVTEQDKDSTYSLSSTLTMSSTEYLSHELYSCEITHKSLPSTLIKSFQRSECQRVD
notes: also called caRF2-B
B6: caninised RF2, HCC isotype (antibody)
heavy: EVQLVQSGGGLVKPTESLTISCVISGFSLTSYGVHWVRQSPGKGLEWLGVIWSGGSIDYNAAFISRLSISKDNSKSTVFIRMNSLRADDTAIYYCARGPRKFYYFGMDYWGQGTSVTVSSASTTAPSVFPLAPSCGSQSGSTVALACLVSGYIPEPVTVSWNSVSLTSGVHTFPSVLQSSGLYSLSSMVTVPSSRWPSETFTCNVAHPATNTKVDKPVAKECECKCNCNNCPCPGCGLLGGPSVFIFPPKPKDILVTARTPTVTCVVVDLDPENPEVQISWFVDSKQVQTANTQPREEQSNGTYRVVSVLPIGHQDWLSGKQFKCKVNNKALPSPIEEIISKTPGQAHQPNVYVLPPSRDEMSKNTVTLTCLVKDFFPPEIDVEWQSNGQQEPESKYRMTPPQLDEDGSYFLYSKLSVDKSRWQRGDTFICAVMHEALHNHYTQISLSHSPGK
light: DIVMTQTPLSLSVSQEEEASISCRSSQNIVHSNGNTYVEWYLQKPGQSPKLLIYKVSNRFSGVPDRFSGSGSGTDFTLKISRVEAEDAGVYYCFQGSHVPLTFGAGTKLELKRNDAQPAVYLFQPSPDQLHTGSASVVCLLNSFYPKDINVKWKVDGVIQDTGIQESVTEQDKDSTYSLSSTLTMSSTEYLSHELYSCEITHKSLPSTLIKSFQRSECQRVD
notes: also called caRF2-C

These are yes or no findings as the source states them, for the method shown. A result given as binding can be weak or reduced; the word gives no strength.

The target of the assay is complement C1q. Put plainly: C1q ELISA, antibody captured on caCD20 peptide. (In an ELISA, binding on a coated surface is turned into a signal by an enzyme label.)
As to B1, the binding result was “binds”.
On to B2, for which the binding result is on record as “binds”.
The result for B3 reads “binds”; that for B4, “binds”.
In the case of B5, the binding entry is recorded as “binds”.
On to B6, for which the binding result is listed as “binds”.
